Paper PMC9119628 (PLoS Pathogens, 2022)
Results are given in words; binding and its absence hold for the method and conditions named. In cells and extracts the contact can be indirect. Some results given as binding are weak or reduced against the parent protein; the word gives no strength.

Protein sequences, listed by entry. Tags and fused reporters are not part of them. Residues count along the entry.
UniProt Q05127: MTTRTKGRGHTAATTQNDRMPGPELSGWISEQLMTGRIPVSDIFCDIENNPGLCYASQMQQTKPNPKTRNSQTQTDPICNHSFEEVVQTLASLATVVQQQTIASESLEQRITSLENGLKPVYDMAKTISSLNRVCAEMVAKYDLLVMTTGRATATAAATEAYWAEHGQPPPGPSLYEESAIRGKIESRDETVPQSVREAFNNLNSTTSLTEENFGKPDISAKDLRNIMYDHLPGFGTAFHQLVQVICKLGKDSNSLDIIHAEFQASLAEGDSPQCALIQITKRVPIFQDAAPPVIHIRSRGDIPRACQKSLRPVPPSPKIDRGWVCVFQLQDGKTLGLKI
UniProt Q05318, residues 1-505: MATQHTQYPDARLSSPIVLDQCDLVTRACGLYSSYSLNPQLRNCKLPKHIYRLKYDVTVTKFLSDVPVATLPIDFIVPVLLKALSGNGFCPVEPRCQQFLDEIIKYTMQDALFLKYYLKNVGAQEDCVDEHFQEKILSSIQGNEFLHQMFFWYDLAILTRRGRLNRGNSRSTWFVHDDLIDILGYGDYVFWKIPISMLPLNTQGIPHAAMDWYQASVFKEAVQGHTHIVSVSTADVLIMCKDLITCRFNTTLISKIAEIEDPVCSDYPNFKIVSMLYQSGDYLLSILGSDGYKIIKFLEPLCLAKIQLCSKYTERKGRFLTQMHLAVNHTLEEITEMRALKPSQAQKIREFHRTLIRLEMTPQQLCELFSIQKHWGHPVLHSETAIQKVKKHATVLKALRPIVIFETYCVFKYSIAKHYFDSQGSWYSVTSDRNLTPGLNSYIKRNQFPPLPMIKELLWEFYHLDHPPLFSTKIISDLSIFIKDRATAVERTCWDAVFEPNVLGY
UniProt Q9C030: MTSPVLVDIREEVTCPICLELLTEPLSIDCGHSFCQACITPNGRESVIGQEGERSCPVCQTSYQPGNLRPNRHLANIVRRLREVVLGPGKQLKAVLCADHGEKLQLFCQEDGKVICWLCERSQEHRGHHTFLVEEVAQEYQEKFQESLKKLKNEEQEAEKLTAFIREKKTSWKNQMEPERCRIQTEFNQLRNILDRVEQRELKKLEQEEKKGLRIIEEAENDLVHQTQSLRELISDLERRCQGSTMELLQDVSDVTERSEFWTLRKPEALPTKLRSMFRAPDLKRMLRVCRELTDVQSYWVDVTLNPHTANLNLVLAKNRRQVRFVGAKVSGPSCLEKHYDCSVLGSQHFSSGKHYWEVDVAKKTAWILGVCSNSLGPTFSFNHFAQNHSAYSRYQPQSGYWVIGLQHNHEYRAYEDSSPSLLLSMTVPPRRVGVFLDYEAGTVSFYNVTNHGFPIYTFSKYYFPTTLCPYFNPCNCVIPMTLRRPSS

Tests used:
Assay in all cases: co-IP
[1] = target: FLAG-tagged EBOV VP35 wild type (Zaire ebolavirus (EBOV)) (UniProt Q05127)
[2] = target: HA-L_(1-505), HA-tagged N-terminal construct of EBOV L (Zaire ebolavirus (EBOV)) (UniProt Q05318)
HA-TRIM6 = HA-TRIM6 (UniProt Q9C030)

Row | Substance | binding [1] | binding [2] | binding (HA-TRIM6)
1 | FLAG-tagged EBOV VP35 wild type (from UniProt Q05127 1-340) | binds |  | 
2 | untagged EBOV VP35 wild type (from UniProt Q05127 1-340) |  | binds | binds
3 | endogenous TRIM6 (from UniProt Q9C030 1-488) (enzyme) |  | binds | 
